{"source": "PubChem BioAssay AID1671195 – Yale University, 2021", "purpose": "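Genes whose knockdown alters LDL uptake in liver cancer cells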 (primary screen)", "cells": "human Huh7 hepatoma cells", "knock-down reagent": "siRNA pool against human genes, 18 nM", "timing": "about 2 to 2.5 days of knockdown, then 8 h LDL uptake", "challenge": "DiI-labelled LDL at 30 µg/ml for 8 h, in lipoprotein-deficient serum medium", "read-out": "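Per-cell DiI-LDL intensity by automated imaging; well means scaled to the plate median and given as a robust z-score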", "scale": "robust z-score: higher = more LDL uptake after knockdown", "call rule": "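a gene counts as active if at least two replicate z-scores exceed ±2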", "note": "In all, the deposit lists about 22,000 reagents; below is an unselected part. About 1,510 of them (6.9%) count as active. 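Active includes knockdowns raising or lowering LDL uptake; positive z-scores mean more uptake, negative mean less.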 The numbers tell different reagents against one gene apart."}
{"target gene": "LOC392337 (retired record)", "reagent no.": 1, "robust z-score, replicate 1": -0.835, "robust z-score, replicate 2": 0.235, "robust z-score, replicate 3": 0.0652, "outcome": "inactive"}
{"target gene": "TMEM64 (transmembrane protein 64)", "reagent no.": 1, "robust z-score, replicate 1": 0.506, "robust z-score, replicate 2": 0.434, "robust z-score, replicate 3": 0.615, "outcome": "inactive"}
{"target gene": "ACKR5 (atypical chemokine receptor 5)", "reagent no.": 1, "robust z-score, replicate 1": -2.11, "robust z-score, replicate 2": -1.91, "robust z-score, replicate 3": -2.04, "outcome": "active"}
{"target gene": "ZFHX2 (zinc finger homeobox 2)", "reagent no.": 1, "robust z-score, replicate 1": 1.71, "robust z-score, replicate 2": 1.78, "robust z-score, replicate 3": 0.922, "outcome": "inactive"}
{"target gene": "ZFHX2 (zinc finger homeobox 2)", "reagent no.": 2, "robust z-score, replicate 1": 0.157, "robust z-score, replicate 2": 0.0429, "robust z-score, replicate 3": 0.0432, "outcome": "inactive"}
{"target gene": "GJB3 (gap junction protein beta 3)", "reagent no.": 1, "robust z-score, replicate 1": -0.463, "robust z-score, replicate 2": -0.168, "robust z-score, replicate 3": -0.565, "outcome": "inactive"}
{"target gene": "ABAT (4-aminobutyrate aminotransferase)", "reagent no.": 1, "robust z-score, replicate 1": -0.00346, "robust z-score, replicate 2": 0.345, "robust z-score, replicate 3": -0.322, "outcome": "inactive"}
{"target gene": "BNC1 (basonuclin zinc finger protein 1)", "reagent no.": 1, "robust z-score, replicate 1": -0.379, "robust z-score, replicate 2": -0.834, "robust z-score, replicate 3": 2.15, "outcome": "inactive"}
{"target gene": "ZNF782 (zinc finger protein 782)", "reagent no.": 1, "robust z-score, replicate 1": 0.881, "robust z-score, replicate 2": 0.128, "robust z-score, replicate 3": 0.276, "outcome": "inactive"}

Next part; the last 2 above are carried over.
{"target gene": "BNC1 (basonuclin zinc finger protein 1)", "reagent no.": 1, "robust z-score, replicate 1": -0.379, "robust z-score, replicate 2": -0.834, "robust z-score, replicate 3": 2.15, "outcome": "inactive"}
{"target gene": "ZNF782 (zinc finger protein 782)", "reagent no.": 1, "robust z-score, replicate 1": 0.881, "robust z-score, replicate 2": 0.128, "robust z-score, replicate 3": 0.276, "outcome": "inactive"}
{"target gene": "HEPHL1 (hephaestin like 1)", "reagent no.": 1, "robust z-score, replicate 1": 0.0389, "robust z-score, replicate 2": -0.013, "robust z-score, replicate 3": 0.113, "outcome": "inactive"}
{"target gene": "OR8J1 (olfactory receptor family 8 subfamily J member 1)", "reagent no.": 1, "robust z-score, replicate 1": -0.145, "robust z-score, replicate 2": -0.279, "robust z-score, replicate 3": -0.207, "outcome": "inactive"}
{"target gene": "CAPG (capping actin protein, gelsolin like)", "reagent no.": 1, "robust z-score, replicate 1": -1.26, "robust z-score, replicate 2": -0.408, "robust z-score, replicate 3": -1.33, "outcome": "inactive"}
{"target gene": "TESC (tescalcin)", "reagent no.": 1, "robust z-score, replicate 1": 0.686, "robust z-score, replicate 2": 0.523, "robust z-score, replicate 3": 1.71, "outcome": "inactive"}
{"target gene": "MYC (MYC proto-oncogene, bHLH transcription factor)", "reagent no.": 1, "robust z-score, replicate 1": 0.327, "robust z-score, replicate 2": 0.41, "robust z-score, replicate 3": -0.323, "outcome": "inactive"}
{"target gene": "ARRDC3 (arrestin domain containing 3)", "reagent no.": 1, "robust z-score, replicate 1": 3.29, "robust z-score, replicate 2": 2.5, "robust z-score, replicate 3": 1.96, "outcome": "active"}
{"target gene": "PSMA3-AS1 (PSMA3 antisense RNA 1)", "reagent no.": 1, "robust z-score, replicate 1": -0.33, "robust z-score, replicate 2": -1.21, "robust z-score, replicate 3": -1.13, "outcome": "inactive"}
